Holding throughout (test): co-IP
Experiment [1] deals with p21-activated kinase 4 (PAK4) (human (endogenous in SU.86.86)) (UniProt O96013).
Experiment [2] concerns the target Cdc42 (human (endogenous in SU.86.86)) (UniProt P60953).
The target in experiment [3] is T1, Hakai (human (endogenous in SU.86.86 and PANC-1)) (UniProt Q75N03).
T1 sequence: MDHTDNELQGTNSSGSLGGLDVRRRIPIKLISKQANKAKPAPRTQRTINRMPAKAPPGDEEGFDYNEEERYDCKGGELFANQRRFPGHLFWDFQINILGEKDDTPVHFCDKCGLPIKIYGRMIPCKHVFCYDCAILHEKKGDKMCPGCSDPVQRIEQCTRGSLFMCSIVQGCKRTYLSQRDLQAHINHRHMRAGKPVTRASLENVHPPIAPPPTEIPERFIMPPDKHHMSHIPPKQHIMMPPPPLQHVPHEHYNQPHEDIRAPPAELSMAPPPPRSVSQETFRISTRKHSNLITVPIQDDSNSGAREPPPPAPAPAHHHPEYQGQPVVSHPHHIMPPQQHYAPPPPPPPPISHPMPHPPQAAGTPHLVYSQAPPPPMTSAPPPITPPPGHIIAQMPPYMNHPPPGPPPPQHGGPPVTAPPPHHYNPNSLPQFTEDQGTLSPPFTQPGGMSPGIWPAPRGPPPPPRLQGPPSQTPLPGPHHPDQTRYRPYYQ

Sequences of proteins named here, by UniProt entry; tags and fusion partners are left off.
UniProt O96013: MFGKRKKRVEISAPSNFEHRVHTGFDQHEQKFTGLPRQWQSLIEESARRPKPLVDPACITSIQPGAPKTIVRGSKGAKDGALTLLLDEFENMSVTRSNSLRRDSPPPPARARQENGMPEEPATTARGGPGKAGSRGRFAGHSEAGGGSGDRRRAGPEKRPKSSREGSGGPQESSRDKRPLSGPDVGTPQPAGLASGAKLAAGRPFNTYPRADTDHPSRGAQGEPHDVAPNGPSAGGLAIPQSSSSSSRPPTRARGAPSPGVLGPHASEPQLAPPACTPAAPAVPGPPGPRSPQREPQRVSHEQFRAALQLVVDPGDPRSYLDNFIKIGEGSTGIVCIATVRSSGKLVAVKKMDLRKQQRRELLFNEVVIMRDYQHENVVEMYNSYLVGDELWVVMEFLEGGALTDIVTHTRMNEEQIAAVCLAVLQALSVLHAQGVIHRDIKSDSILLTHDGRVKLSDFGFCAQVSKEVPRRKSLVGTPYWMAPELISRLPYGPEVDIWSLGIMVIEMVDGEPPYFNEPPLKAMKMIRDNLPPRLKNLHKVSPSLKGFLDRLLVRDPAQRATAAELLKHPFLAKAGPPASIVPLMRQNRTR
UniProt P60953: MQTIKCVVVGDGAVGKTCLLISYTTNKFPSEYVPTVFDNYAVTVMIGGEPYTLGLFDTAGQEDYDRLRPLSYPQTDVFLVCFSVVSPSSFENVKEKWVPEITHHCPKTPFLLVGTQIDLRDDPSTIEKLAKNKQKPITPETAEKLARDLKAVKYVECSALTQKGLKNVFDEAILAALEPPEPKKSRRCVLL

The target in experiment [4] is p21-activated kinase 4 (PAK4) (human (endogenous in SU.86.86)) (UniProt O96013). This is another data set of the same source.
The target of experiment [5] is Cdc42 (human (endogenous in SU.86.86)) (UniProt P60953). This is another data set of the same source.

The values below come from article doi:10.1101/2024.05.22.594599.

Like-named read-outs stand apart in the source and are kept apart here. No constants are given. Whether binding was seen depends on the method and setting. In cells and extracts the contact can be indirect. Some entries that bind do so weakly or less than the wild type.

In the case of Cdc42 (from UniProt P60953 1-191), the binding entry in experiment [1] was “binds”.

“p21-activated kinase 4 (PAK4) (from UniProt O96013 1-591)”: the binding entry in experiment [2] and in experiment [3] was “binds” each time.

B1: p120ctn (protein, UniProt O60716 1-968)
chain: MDDSEVESTASILASVKEQEAQFEKLTRALEEERRHVSAQLERVRVSPQDANPLMANGTLTRRHQNGRFVGDADLERQKFSDLKLNGPQDHSHLLYSTIPRMQEPGQIVETYTEEDPEGAMSVVSVETSDDGTTRRTETTVKKVVKTVTTRTVQPVAMGPDGLPVDASSVSNNYIQTLGRDFRKNGNGGPGPYVGQAGTATLPRNFHYPPDGYSRHYEDGYPGGSDNYGSLSRVTRIEERYRPSMEGYRAPSRQDVYGPQPQVRVGGSSVDLHRFHPEPYGLEDDQRSMGYDDLDYGMMSDYGTARRTGTPSDPRRRLRSYEDMIGEEVPSDQYYWAPLAQHERGSLASLDSLRKGGPPPPNWRQPELPEVIAMLGFRLDAVKSNAAAYLQHLCYRNDKVKTDVRKLKGIPVLVGLLDHPKKEVHLGACGALKNISFGRDQDNKIAIKNCDGVPALVRLLRKARDMDLTEVITGTLWNLSSHDSIKMEIVDHALHALTDEVIIPHSGWEREPNEDCKPRHIEWESVLTNTAGCLRNVSSERSEARRKLRECDGLVDALIFIVQAEIGQKDSDSKLVENCVCLLRNLSYQVHREIPQAERYQEAAPNVANNTGPHAASCFGAKKGKDEWFSRGKKPIEDPANDTVDFPKRTSPARGYELLFQPEVVRIYISLLKESKTPAILEASAGAIQNLCAGRWTYGRYIRSALRQEKALSAIADLLTNEHERVVKAASGALRNLAVDARNKELIGKHAIPNLVKNLPGGQQNSSWNFSEDTVISILNTINEVIAENLEAAKKLRETQGIEKLVLINKSGNRSEKEVRAAALVLQTIWGYKELRKPLEKEGWKKSDFQVNLNNASRSQSSHSYDDSTLPLIDRNQKSDKKPDREEIQMSNMGSNTKSLDNNYSTPNERGDHNRTLDRSGDLGDMEPLKGTTPLMQDEGQESLEEELDVLVLDDEGGQVSYPSMQKI
B1: the binding result in experiment [4] and in experiment [5] was “binds” throughout.
